The experiment has as its target Flag-ORF9b (SARS-CoV-2 ORF9b, wild type) (SARS-CoV-2) (UniProt P0DTD2). The experiment is described as follows: co-IP.

Sequences of proteins named here, by UniProt entry; tags and fusion partners are left off.
UniProt P0DTD2: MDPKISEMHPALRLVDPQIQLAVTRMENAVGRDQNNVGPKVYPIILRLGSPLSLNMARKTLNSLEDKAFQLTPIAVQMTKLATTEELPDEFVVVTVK
UniProt P08238: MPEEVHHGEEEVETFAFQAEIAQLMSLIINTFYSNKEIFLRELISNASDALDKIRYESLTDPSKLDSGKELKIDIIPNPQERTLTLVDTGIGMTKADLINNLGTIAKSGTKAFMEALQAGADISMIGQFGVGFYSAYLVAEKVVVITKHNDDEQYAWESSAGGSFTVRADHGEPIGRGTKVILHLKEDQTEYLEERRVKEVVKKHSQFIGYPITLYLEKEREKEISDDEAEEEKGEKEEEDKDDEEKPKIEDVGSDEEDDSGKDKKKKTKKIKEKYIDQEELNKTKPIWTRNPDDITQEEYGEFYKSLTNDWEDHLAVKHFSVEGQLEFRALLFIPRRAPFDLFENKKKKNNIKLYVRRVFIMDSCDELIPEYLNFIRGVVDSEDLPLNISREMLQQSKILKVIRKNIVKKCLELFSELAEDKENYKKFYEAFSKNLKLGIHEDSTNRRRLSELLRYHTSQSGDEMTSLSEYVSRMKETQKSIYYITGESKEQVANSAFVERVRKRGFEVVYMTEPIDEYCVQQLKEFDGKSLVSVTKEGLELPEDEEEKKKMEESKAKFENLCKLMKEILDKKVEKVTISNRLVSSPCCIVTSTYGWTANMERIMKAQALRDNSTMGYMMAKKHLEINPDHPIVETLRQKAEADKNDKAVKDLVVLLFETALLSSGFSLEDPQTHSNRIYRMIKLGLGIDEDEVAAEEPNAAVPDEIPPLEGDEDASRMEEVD

No constants are given. Whether binding was seen depends on the method and setting. Binding seen in cells or lysates may run through a third protein.

Regarding HSP90β (from UniProt P08238 1-724), the binding result is given as “no binding”.

For the origin of these results see paper PMC11211426.
